Some of the results follow. Many values rest on one well or one pass, so single values are uncertain.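 Cells were imaged in 1,536-well plates, and nuclei stained with an antibody against cleaved PARP were counted against all DNA-stained nuclei to give the apoptosis fraction. Screening doses were chosen to leave most cells alive, and resting and induced cleaved-PARP levels differ strongly between cell lines.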
Tests used:
Assay in all cases: cleaved PARP positive nuclei fraction relative to DMSO control; melanoma cells; higher = more apoptosis
Settings in all cases: library dose: low library concentration; 72 h
[1] = tested on: MZ2-MEL
[2] = tested on: MeWo
[3] = tested on: RPMI7951
[4] = tested on: RVH-421
[5] = tested on: SkMel28
[6] = tested on: SkMel2
[7] = tested on: SkMel30
[8] = tested on: SkMel5
[9] = tested on: UACC257
[10] = tested on: UACC62
[11] = tested on: WM115
[12] = tested on: WM1716
[13] = tested on: WM1745
[14] = tested on: WM3526
[15] = tested on: WM3619
[16] = tested on: WM451Lu

Row | SMILES | cleaved PARP positive nuclei fraction [1] [%] | cleaved PARP positive nuclei fraction [2] [%] | cleaved PARP positive nuclei fraction [3] [%] | cleaved PARP positive nuclei fraction [4] [%] | cleaved PARP positive nuclei fraction [5] [%] | cleaved PARP positive nuclei fraction [6] [%] | cleaved PARP positive nuclei fraction [7] [%] | cleaved PARP positive nuclei fraction [8] [%] | cleaved PARP positive nuclei fraction [9] [%] | cleaved PARP positive nuclei fraction [10] [%] | cleaved PARP positive nuclei fraction [11] [%] | cleaved PARP positive nuclei fraction [12] [%] | cleaved PARP positive nuclei fraction [13] [%] | cleaved PARP positive nuclei fraction [14] [%] | cleaved PARP positive nuclei fraction [15] [%] | cleaved PARP positive nuclei fraction [16] [%]
1 | CO[C@@H]1[C@H](N(C)C(=O)c2ccccc2)C[C@H]2O[C@]1(C)n1c3ccccc3c3c4c(c5c6ccccc6n2c5c31)C(=O)NC4 [Midostaurin] + CC(C)(C)c1cnc(CSc2cnc(NC(=O)C3CCNCC3)s2)o1 [SNS-032] (first compound 0.08 µM, partner dose 0.01 µM) | 197 | 80.7 | 151 | 112 | 85.9 | 118 | 71.4 | 149 | 256 | 108 | 94.1 | 143 | 110 | 52.9 | 101 | 91.2
2 | C=CCNC1=C2C[C@@H](C)C[C@H](OC)[C@H](O)[C@@H](C)/C=C(\C)[C@H](OC(N)=O)[C@@H](OC)/C=C\C=C(/C)C(=O)NC(=CC1=O)C2=O [Tanespimycin] + COC(=O)c1sccc1S(=O)(=O)Nc1ccc(Nc2ccccc2)cc1OC [GSK0660] (first compound 0.002 µM, partner dose 1 µM) | 47.2 | 99.2 | 89.4 | 106 | 80.3 | 113 | 61.5 | 166 | 199 | 65.7 | 124 | 87.1 | 83.2 | 129 | 111 | 34.1
3 | Clc1ccc(Nc2nnc(Cc3ccncc3)c3ccccc23)cc1 [vatalanib] + Oc1cc(-c2nc(-c3ccccc3)[nH]c2-c2ccncc2)ccc1Cl [L779450] (first compound 2 µM, partner dose 0.2 µM) | 116 | 55.5 | 67.3 | 62.5 | 183 | 79.5 | 57.6 | 29.3 | 116 | 161 | 87.8 | 69.1 | 125 | 105 | 77.7 | 81
4 | COCC[n+]1c2c(n(Cc3cnccn3)c1C)C(=O)c1ccccc1C2=O + OCCn1cc(-c2cnc3nnn(Cc4ccc5ncccc5c4)c3n2)cn1 [PF04217903] (first compound 0.0004 µM, partner dose 1 µM) | 186 | 141 | 93.3 | 99.8 | 82 | 78.9 | 199 | 150 | 104 | 116 | 52.6 | 144 | 83.8 | 57 | 95.8 | 205
5 | Clc1ccc(Nc2nnc(Cc3ccncc3)c3ccccc23)cc1 [vatalanib] + COc1ccc2c(c1)CCC1C2CCC2(C)C(NCCCCCCN3C(=O)C=CC3=O)CCC12 [U73122] (first compound 2 µM, partner dose 0.4 µM) | 157 | 40.1 | 115 | 132 | 357 | 25900 | 163 | 100 | 177 | 144 | 324 | 142 | 96.7 | 135 | 120 | 80.4
6 | Cn1nnc2c(C(N)=O)ncn2c1=O [temozolomide] + COc1cc2c(Oc3ccc4[nH]c(C)cc4c3F)ncnc2cc1OCCCN1CCCC1 [cediranib] (first compound 2 µM, partner dose 0.4 µM) | 97.7 | 32.7 | 194 | 195 | 52.6 | 69.3 | 275 | 71.7 | 206 | 108 | 107 | 141 | 99.5 | 63.2 | 95 | 224
7 | COc1cc(Nc2ncc(F)c(Nc3ccc4c(n3)NC(=O)C(C)(C)O4)n2)cc(OC)c1OC [Tamatinib] + Cn1cncc1[C@@](N)(c1ccc(Cl)cc1)c1ccc2c(c1)c(-c1cccc(Cl)c1)cc(=O)n2C [tipifarnib] (first compound 0.4 µM, partner dose 0.01 µM) | 116 | 128 | 140 | 164 | 162 | 193 | 99.9 | 549 | 2.17 | 277 | 649 | 169 | 134 | 40.8 | 178 | 22.2
8 | C=CCNC1=C2C[C@@H](C)C[C@H](OC)[C@H](O)[C@@H](C)/C=C(\C)[C@H](OC(N)=O)[C@@H](OC)/C=C\C=C(/C)C(=O)NC(=CC1=O)C2=O [Tanespimycin] + N#Cc1c(O)c2c(-c3ccc(-c4ccccc4O)cc3)csc2[nH]c1=O [A769662] (first compound 0.002 µM, partner dose 2 µM) | 94.8 | 182 | 138 | 167 | 97.6 | 68.2 | 239 | 173 | 68.5 | 76.3 | 77.4 | 98.3 | 106 | 238 | 111 | 247
9 | Cc1ccc(NC(=O)c2cccc(N(C)C)c2)cc1NC(=O)c1ccc(O)cc1 + NC(=O)Nc1cc(-c2cccc(F)c2)sc1C(=O)N[C@H]1CCCNC1 [AZD7762] (first compound 2 µM, partner dose 0.02 µM) | 159 | 63.2 | 89.3 | 51.1 | 83.6 | 78.2 | 31.5 | 36.1 | 21.3 | 102 | 167 | 101 | 111 | 80.9 | 163 | 81.8
